{"source": "paper doi:10.1101/2024.09.09.612121", "binders": {"B1": {"name": "full-length Bim1 (protein, UniProt P40013 1-344)", "chain": "MSAGIGESRTELLTWLNGLLNLNYKKIEECGTGAAYCQIMDSIYGDLPMNRVKFNATAEYEFQTNYKILQSCFSRHGIEKTVYVDKLIRCKFQDNLEFLQWLKKHWIRHKDESVYDPDARRKYRPIITNNSATKPRTVSNPTTAKRSSSTGTGSAMSGGLATRHSSLGINGSRKTSVTQGQLVAIQAELTKSQETIGSLNEEIEQYKGTVSTLEIEREFYFNKLRDIEILVHTTQDLINEGVYKFNDETITGHGNGNGGALLRFVKKVESILYATAEGFEMNDGEDELNDKNLGEHGTVPNQGGYANSNGEVNGNEGSNHDVIMQNDEGEVGVSNNLIIDEETF"}}, "key": {"[1]": {"biological_target": "T1, full-length hexa-histidine tagged self-oligomerization interface mutant Kar9 (budding yeast) (UniProt P32526)", "T1 sequence": "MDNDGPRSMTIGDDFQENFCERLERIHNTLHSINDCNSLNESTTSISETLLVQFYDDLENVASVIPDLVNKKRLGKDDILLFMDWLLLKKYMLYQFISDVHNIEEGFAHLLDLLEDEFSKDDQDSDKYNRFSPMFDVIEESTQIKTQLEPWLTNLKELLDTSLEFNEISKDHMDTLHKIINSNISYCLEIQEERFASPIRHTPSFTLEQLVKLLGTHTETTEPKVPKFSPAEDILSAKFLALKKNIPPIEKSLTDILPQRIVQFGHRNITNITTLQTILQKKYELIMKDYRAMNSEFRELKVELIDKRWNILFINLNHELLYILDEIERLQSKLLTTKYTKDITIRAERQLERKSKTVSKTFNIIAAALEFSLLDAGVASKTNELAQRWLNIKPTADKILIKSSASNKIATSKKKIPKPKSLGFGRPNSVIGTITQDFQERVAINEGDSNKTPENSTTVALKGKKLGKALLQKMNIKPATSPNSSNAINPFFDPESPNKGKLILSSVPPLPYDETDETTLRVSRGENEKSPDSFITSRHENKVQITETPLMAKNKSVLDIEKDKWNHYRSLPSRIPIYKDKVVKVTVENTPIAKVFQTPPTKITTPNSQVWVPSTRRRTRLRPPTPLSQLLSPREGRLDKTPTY", "assay": "co-purification"}, "[2]": {"biological_target": "T2, full-length hexa-histidine tagged wild-type Kar9 (budding yeast) (UniProt P32526)", "T2 sequence": "T1 sequence with A237R, A241N, A292F, A347L, A366Y, A367R", "assay": "co-purification"}}, "note": "Changes are numbered by the printed parent chain. Results are given in words; binding and its absence hold for the method and conditions named. Some entries that bind do so weakly or less than the wild type. Sequences can lack the tags named with a protein.", "data": [{"binder": "B1", "values": [{"measurement": "binding", "setting": "[1]", "result": "binds"}, {"measurement": "binding", "setting": "[2]", "result": "binds"}]}]}
